These are yes or no findings as the source states them, for the method shown. Binding seen in cells or lysates may run through a third protein. Here binding means that the protein was enriched with, or labelled near, the bait; the list need not be complete. For some assays here: Where a sequence is shown, tags or fusion partners need not be part of it.
What was measured:
[1] = target: T1, epitope-tagged LDL2 (pLDL2::LDL2-FLAG transgenic line) (A. thaliana) (UniProt Q9LID0); assay: affinity purification with mass spectrometry; extract of about 2 g seedlings of FLAG- or GFP-tagged lines, benzonase-treated; anti-FLAG or anti-GFP antibody on Dynabeads protein G, 2 h at 4°C; 25 mM HEPES-KOH pH 7.5, 100 mM NaCl; nontransgenic plants as negative control
T1 sequence: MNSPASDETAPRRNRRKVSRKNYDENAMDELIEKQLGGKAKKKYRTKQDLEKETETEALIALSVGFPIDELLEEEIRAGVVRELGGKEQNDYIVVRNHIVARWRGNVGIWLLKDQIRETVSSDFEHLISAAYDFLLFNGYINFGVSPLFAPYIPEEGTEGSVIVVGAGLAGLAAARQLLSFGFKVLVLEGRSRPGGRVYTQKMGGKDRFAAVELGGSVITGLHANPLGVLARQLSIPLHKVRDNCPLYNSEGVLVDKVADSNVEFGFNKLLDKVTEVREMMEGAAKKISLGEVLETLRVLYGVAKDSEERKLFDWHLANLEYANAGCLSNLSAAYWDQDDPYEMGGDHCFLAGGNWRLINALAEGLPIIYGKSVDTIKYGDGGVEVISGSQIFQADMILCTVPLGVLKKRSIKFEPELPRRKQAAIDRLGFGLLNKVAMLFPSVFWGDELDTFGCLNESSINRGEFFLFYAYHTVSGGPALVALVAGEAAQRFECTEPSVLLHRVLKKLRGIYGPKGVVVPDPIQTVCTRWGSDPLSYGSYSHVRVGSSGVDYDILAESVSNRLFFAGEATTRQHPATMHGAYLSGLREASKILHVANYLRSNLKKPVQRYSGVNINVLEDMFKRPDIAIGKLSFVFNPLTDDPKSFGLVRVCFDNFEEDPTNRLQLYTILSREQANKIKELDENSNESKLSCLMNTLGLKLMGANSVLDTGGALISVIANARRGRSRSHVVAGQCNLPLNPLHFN

Chains of the proteins cited; added tags and fusions are not shown. Lines headed by an entry give the natural chain unless they say otherwise; changes in a name come on top.
UniProt Q9LME6: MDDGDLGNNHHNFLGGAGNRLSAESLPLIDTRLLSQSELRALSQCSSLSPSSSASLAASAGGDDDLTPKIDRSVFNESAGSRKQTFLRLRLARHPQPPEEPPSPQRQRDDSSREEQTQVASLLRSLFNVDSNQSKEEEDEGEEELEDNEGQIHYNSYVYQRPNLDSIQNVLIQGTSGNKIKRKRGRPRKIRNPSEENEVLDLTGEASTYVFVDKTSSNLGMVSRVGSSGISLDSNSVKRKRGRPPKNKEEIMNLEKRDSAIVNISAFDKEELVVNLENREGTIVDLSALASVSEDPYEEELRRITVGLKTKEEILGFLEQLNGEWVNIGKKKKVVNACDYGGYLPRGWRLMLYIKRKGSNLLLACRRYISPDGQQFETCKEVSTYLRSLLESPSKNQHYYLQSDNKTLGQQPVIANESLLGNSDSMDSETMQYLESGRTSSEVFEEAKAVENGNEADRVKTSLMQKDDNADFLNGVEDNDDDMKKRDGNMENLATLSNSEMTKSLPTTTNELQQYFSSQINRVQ

[2] = target: epitope-tagged MBD8 (transgenic lines) (A. thaliana) (UniProt Q9LME6); assay: as above

| Molecule | binding [1] | binding [2] |
| --- | --- | --- |
| methyl-CpG-binding domain protein 8 (MBD8), endogenous (from UniProt Q9LME6) | binds |  |
| LDL2, endogenous (enzyme, UniProt Q9LID0 1-746) MNSPASDETAPRRNRRKVSRKNYDENAMDELIEKQLGGKAKKKYRTKQDLEKETETEALIALSVGFPIDELLEEEIRAGVVRELGGKEQNDYIVVRNHIVARWRGNVGIWLLKDQIRETVSSDFEHLISAAYDFLLFNGYINFGVSPLFAPYIPEEGTEGSVIVVGAGLAGLAAARQLLSFGFKVLVLEGRSRPGGRVYTQKMGGKDRFAAVELGGSVITGLHANPLGVLARQLSIPLHKVRDNCPLYNSEGVLVDKVADSNVEFGFNKLLDKVTEVREMMEGAAKKISLGEVLETLRVLYGVAKDSEERKLFDWHLANLEYANAGCLSNLSAAYWDQDDPYEMGGDHCFLAGGNWRLINALAEGLPIIYGKSVDTIKYGDGGVEVISGSQIFQADMILCTVPLGVLKKRSIKFEPELPRRKQAAIDRLGFGLLNKVAMLFPSVFWGDELDTFGCLNESSINRGEFFLFYAYHTVSGGPALVALVAGEAAQRFECTEPSVLLHRVLKKLRGIYGPKGVVVPDPIQTVCTRWGSDPLSYGSYSHVRVGSSGVDYDILAESVSNRLFFAGEATTRQHPATMHGAYLSGLREASKILHVANYLRSNLKKPVQRYSGVNINVLEDMFKRPDIAIGKLSFVFNPLTDDPKSFGLVRVCFDNFEEDPTNRLQLYTILSREQANKIKELDENSNESKLSCLMNTLGLKLMGANSVLDTGGALISVIANARRGRSRSHVVAGQCNLPLNPLHFN |  | binds |

Reference: PMC13157976
